# Measurements: PubChem BioAssay AID493014 (National Center for Advancing Translational Sciences (NCATS), 2011)
# The campaign covered roughly 340,000 compounds. About 170 (0.05%) were called active. This list was built around the results that the source calls inconclusive (neither active nor inactive); the mix of calls is not that of the screen. Calls come from the whole dose curve; as a rule, active = well fitted inhibition curve with a large enough effect in the signal ratio, with a control signal flat (not every such curve was filed as active); inconclusive = small, poorly fitted or top-dose-only effect, or effect the other way, or a change in a side signal; inactive = flat fitted curve, though single readings scatter; the % refers to the signal ratio. A potency beside an inconclusive call is a rough fit, not a confirmed value.
# Assay: qHTS Assay to Find Inhibitors of Chronic Active B-Cell Receptor Signaling;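 for activity change, negative = inhibition: plate controls were basal doxycycline-induced cells for no effect and cells given 10 µM MG132 for full effect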
# Conditions: ABC-DLBCL IkBa-CBG/CBR reporter, luminescence ratio (green luciferase fused to IkBa over red control in TMD8 lymphoma cells), 4 h; activity change, negative = inhibition: at 46.1 µM (top of the series)
# In short: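 Compounds up to 46 uM were incubated four hours with TMD8 cells whose green CBG68 luciferase is fused to IkappaBalpha; red CBR luminescence normalised the signal, and concentration-effect curves were fitted to fusion, red and ratio data.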
# Potency is the fitted concentration of half-maximal effect.
SMILES,Potency,"activity change, negative = inhibition"
CC(C)(C)N(Cc1ccccc1)C(=O)CSc1nc2ccccc2c(=O)[nH]1,"inconclusive: 5.17 µM [falling, single point]",–
COc1ccc(C(=O)NCCNC(C)=O)cc1S(=O)(=O)NCc1ccc(Cl)cc1,–,inconclusive: 8.25%
COc1ccc2c(CNCCc3ccccc3)c(C(=O)O)n(Cc3cccc(F)c3)c2c1,"inconclusive: 35.5 µM [falling, single point]",–
Cc1ccc(Cl)c2sc(N3CCN(C(=O)c4ccco4)CC3)nc12,–,inactive: 14%
O=S(=O)(c1ccc2nc(N3CCN(c4ccccc4)CC3)ccc2c1)N1CCCCC1,–,inactive: -7.16%
Cc1ccccc1Nc1nc(Nc2ccccc2C)nc(SC2=NCCS2)n1,–,inconclusive: 8.96%
C=CCn1c(SCC(=O)c2ccc(O)c(O)c2)nnc1-c1cccc(C)c1,"inconclusive: 20.6 µM [falling, partial curve]",–
CC1CN(C(=O)c2cc(Br)c(Br)s2)CC(C)O1 (stereo not given),–,inconclusive: 2.61%
Cc1cc(-c2ccc(/C=N/n3cnnc3)o2)c(C)c([N+](=O)[O-])c1,–,inactive: -1.72%
OC[C@H]1O[C@@H](n2cnc3c(NC4CCCC4)ncnc32)[C@H](O)[C@@H]1O,"inconclusive: 25.1 µM [falling, partial curve]",–
Cc1ccc(N(CC(=O)Nc2ccc(C)cn2)S(=O)(=O)c2c(C)nn(C)c2C)cc1,–,inconclusive: 9.14%
CCc1ccc(-c2nc(CCl)cs2)cc1,–,inconclusive: 19.6%
Cc1cc(C)c(C#N)c(SCc2nnc(-c3ccccc3)o2)n1,"inconclusive: 0.461 µM [falling, full curve, poor fit]",–
Cc1ccsc1/C=C(\C(=O)c1ccc(OC(C)C)cc1)c1nc2ccccc2o1,–,inactive: 2.29%
COc1ccc(NC(=O)C/C(C)=N/NC(=O)c2cccs2)c([N+](=O)[O-])c1,"inconclusive: 22.4 µM [falling, partial curve]",–
CCn1c(SCC(=O)Nc2nc(C)c(C)s2)nnc1-c1cccs1,–,inactive: 3.4%
CCN(CC)c1ccc(/C=N/NC(=O)c2ccc(Br)o2)cc1,"inconclusive: 29.1 µM [falling, partial curve, poor fit]",–
Cc1ccc(NC(=O)c2ccc(CSc3nccc(C)n3)cc2)cc1,"inconclusive: 11.2 µM [falling, partial curve, poor fit]",–
COc1ccc(N(CC(=O)N/N=C/c2cccc(OC)c2OC)S(=O)(=O)c2ccccc2)cc1,–,inconclusive: -19.9%
O=C(Nc1nccs1)C(F)(F)C(F)(F)C(F)(F)C(=O)Nc1nccs1,–,inconclusive: 0.0535%
CC(OC(=O)C1=COCCO1)C(=O)NC(C)c1ccc(Cl)cc1Cl (stereo not given),–,inactive: 0.298%
O=C(N/N=C1\CCc2ccccc21)c1ccccc1Cl,"inconclusive: 20.6 µM [falling, single point]",–
C[C@@H](C(=O)NCc1ccccn1)[C@@H]1C[C@@]1(C)[C@@H](NC(=O)OCc1ccccc1)c1ccccc1,–,inactive: -3.77%
Cc1ccc(CNC(=O)[C@H](C)N2C(=O)N3CCc4c([nH]c5ccccc45)[C@@]3(C)C2=O)cc1,–,inconclusive: 12%
Cc1ccccc1OCCN1CCC(Cc2ccccc2)CC1,–,inactive: -2.96%

# One compound at a time, from the list above.
# `Cc1ccc(NC(=O)c2ccc(CSc3nccc(C)n3)cc2)cc1` reads Potency: inconclusive: 11.2 µM [falling, partial curve, poor fit]
# `Cc1ccsc1/C=C(\C(=O)c1ccc(OC(C)C)cc1)c1nc2ccccc2o1` reads activity change, negative = inhibition: inactive: 2.29%

# More results

SMILES,Potency,"activity change, negative = inhibition"
CCc1nnc(N/N=C/c2ccc(N3CCC(C)CC3)c([N+](=O)[O-])c2)n1N,"inconclusive: 23.1 µM [falling, single point]",–
CCOC(=O)c1c(NC(=O)COC(=O)c2cnccn2)sc(C(=O)NC)c1C,–,inactive: -5.66%
Cc1sc2ncnc(SCC(=O)NCC(C)C)c2c1C,–,inconclusive: 7.67%
COc1cccc2[nH]c(C(=O)NCC3CCCO3)cc12 (stereo not given),–,inconclusive: -3.09%
CCOC(=O)c1c(S(=O)(=O)Nc2cccc(-c3ccno3)c2)c(C)n(C)c1C,–,inconclusive: -7.33%
Cc1ccc(CC(=O)Nc2cccc([N+](=O)[O-])c2)cc1,–,inconclusive: 8.63%
O=C(Nc1ccc(F)cc1)Nc1ccccc1F,"inconclusive: 11.2 µM [falling, partial curve]",–
O=C(O)CC/C(=C\c1cc2c(cc1Br)OCO2)c1nc2ccccc2s1,–,inconclusive: -0.734%
Cc1cnc(C(=O)Nc2cccc3cccnc23)cn1,–,inactive: -4.44%
COc1ccc2c(c1)nc(SCC(C)O)n2C (stereo not given),"inconclusive: 29.1 µM [rising, partial curve, poor fit]",–
O=C(CCN1C(=O)/C(=C/c2ccccc2)SC1=S)NNC(=O)c1ccncc1,–,inconclusive: 2.34%
COc1ccc(N=Nc2cc(C)c(O)c(CN3CCCCC3)c2)cc1,–,inconclusive: 6.31%
Cc1cc(NC(=O)CSc2nc3ccccc3c(=O)n2C2CCCC2)no1,"inconclusive: 2.06 µM [falling, full curve]",–
COCCSc1nnc(NC(=O)CCS(=O)(=O)c2ccccc2)s1,"inconclusive: 31.6 µM [rising, single point]",–
O=C(Cc1ccccc1)Nc1cccc(C(=O)O)c1O,–,inactive: -12.5%
O=C(Nc1ccc(Cl)c(-c2nc3ccccc3[nH]2)c1)c1ccc2c(c1)OCO2,–,inconclusive: 3.22%
CN(C)c1cc2c(c(N(C)C)c1)C(=O)c1ccccc1C2=O,–,inconclusive: 7.36%
O=C1CS(=O)(=O)N(Cc2cccc(F)c2)c2ccc(Br)cc21,"inconclusive: 14.6 µM [rising, partial curve, poor fit]",–
C/C(=N/NC(=O)c1ccccn1)c1c[nH]c2ccccc12,"inconclusive: 20 µM [falling, single point]",–
COC(=O)C(NS(=O)(=O)c1cccc(S(=O)(=O)NC(C(=O)OC)c2ccccc2)c1)c1ccccc1 (stereo not given),–,inconclusive: 0.79%
O=C(Nc1sc2c(c1C(=O)O)CCCCC2)c1ccccc1F,–,inconclusive: 386%
CCOc1ccc(CNC(=O)c2sc3ncnc(N(C)C4CCCCC4)c3c2C)cc1,–,inactive: 6.56%
CC1(C)CC(=O)c2cc(N=C/C(C(=O)c3ccccc3)=C(\O)c3ccccc3)c(=O)oc2C1,–,inconclusive: 12.6%
COC(CNC(=O)C(=O)Nc1ccc2c(c1)N(S(=O)(=O)c1cccs1)CCC2)OC,–,inconclusive: 0.143%
O=C(COC(=O)c1c(F)cccc1Cl)NCC1CCCCC1,–,inconclusive: -6.41%

SMILES,Potency,"activity change, negative = inhibition"
Cc1nn(-c2ccc(N3CCOCC3)nn2)c(C)c1CCC(=O)NCc1ccccc1F,–,inactive: -0.513%
COc1ccc(-c2noc(N3CCCC(C(=O)Nc4ccccc4F)C3)n2)cc1 (stereo not given),–,inconclusive: 18.3%
CN(C)C(=O)CSc1n[nH]c(-c2ccco2)n1,"inconclusive: 3.98 µM [falling, single point]",–
Cc1ccc(NC(=O)[C@@]2(CC(=O)O)CC(/C=C/c3ccccc3)=NO2)c(C)c1,–,inactive: 5.84%
Cc1cc2ccccn2c1C(=S)NC(=O)c1ccccc1,–,inactive: 6.24%
COC(=O)Nc1nc2ccc(Sc3ccccc3)cc2[nH]1,–,inconclusive: -15.1%
Oc1ccccc1N=Nc1ccccc1O,"inconclusive: 0.708 µM [falling, partial curve, poor fit]",–
C[C@]12c3[nH]c4cc(-c5ccco5)ccc4c3CCN1C(=O)[C@@H](CC(=O)NCC13CC4CC(CC(C4)C1)C3)C[C@@H]2C(=O)N1CCOCC1,–,inconclusive: -11.1%
O=[N+]([O-])c1cc(NS(=O)(=O)c2ccc(Cl)nc2)ccc1Cl,"inconclusive: 29.1 µM [rising, partial curve, poor fit]",–
O=[N+]([O-])c1cccc(S(=O)(=O)c2cccc([N+](=O)[O-])c2)c1,"inconclusive: 22.4 µM [falling, partial curve]",–
COc1ccc(-n2c(-c3ccc(F)cc3)cnc2SCC(=O)NCc2ccco2)cc1,–,inconclusive: 1.92%
COc1ccccc1NC(=O)c1cnc(Nc2ccccc2OC)c2ccccc12,"inconclusive: 23.1 µM [cytotoxic, partial curve]",–
COc1ccc(C(=O)/C=C/C(=O)N(CC(=O)NC2CCCCC2)Cc2ccccc2)c(O)c1,"inconclusive: 1.58 µM [falling, partial curve]",–
COc1cc(/C=N/NC(=S)Nc2cccc(S(=O)(=O)N(C)C)c2)ccc1O,"inconclusive: 13 µM [falling, partial curve]",–
O=C1C=C(c2ccc(-c3ccccc3)cc2)C[C@@H](c2ccc(F)cc2)C1,–,inconclusive: -1.76%
Cc1cccc(NC(=S)NNC(=O)c2ccc3c(c2)OCO3)c1,"inconclusive: 20.6 µM [falling, partial curve]",–
COc1cc2c(cc1OC)-c1cc(Nc3ccc(N(C)C)cc3)nc(=O)n1CC2,"inconclusive: 25.1 µM [falling, single point]",–
O=C(CCC(=O)N(CC(=O)NC1CCCC1)c1ccccc1F)Nc1nccs1,–,inconclusive: 0.032%
COc1ccc(C(=S)N2CCOCC2)cc1OC(=O)c1cc([N+](=O)[O-])c(C)c([N+](=O)[O-])c1,–,inconclusive: -0.615%
COCCn1cnc2c1c(=O)n(Cc1ccc(C#N)cc1)c(=O)n2Cc1ccccc1,–,inactive: -1.67%
O=C(NC(=S)NNC(=O)c1ccccc1[N+](=O)[O-])c1ccccc1,"inconclusive: 5.17 µM [falling, single point]",–
Cc1[nH]n(-c2ccccc2)c(=S)c1C=Nc1ccc([N+](=O)[O-])cc1,–,inactive: 15.7%
CN(CC(=O)Nc1ccc(Cl)cc1)C(=O)c1sccc1-c1ccccc1,–,inactive: 0.695%
CCOC(=O)C(NC(=O)c1cccc(Cl)c1)(Nc1sc2c(c1C(N)=O)CCC2)C(F)(F)F (stereo not given),–,inconclusive: -19.7%
CCOC(=O)C1CCCN(c2ccc(NC(=O)c3snc4c(=O)[nH]c(C)nc34)cc2)C1 (stereo not given),–,inconclusive: 2.81%

# Part of the list above in order of length of the SMILES, rising:
SMILES,Potency,"activity change, negative = inhibition"
COc1ccccc1NC(=O)c1cnc(Nc2ccccc2OC)c2ccccc12,"inconclusive: 23.1 µM [cytotoxic, partial curve]",–
O=C(CCC(=O)N(CC(=O)NC1CCCC1)c1ccccc1F)Nc1nccs1,–,inconclusive: 0.032%
COCCn1cnc2c1c(=O)n(Cc1ccc(C#N)cc1)c(=O)n2Cc1ccccc1,–,inactive: -1.67%
